Data as given in PubChem BioAssay AID1259424 (University of Nebraska Medical Center, 2018).

Aim: 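Find knockdowns that reproduce the expression shifts seen after KSR1 loss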 (primary screen)
Cells: human HCT116 colon cancer cells
Knock-down reagent: siRNA pool against human genes, 50 nM
Measured: 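Log2 levels of six mRNAs (branched-DNA multiplex), adjusted by two reference genes and the non-targeting median, then scored against the average KSR1 knockdown pattern as Pearson r and euclidean distance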
Scale: mean correlation with KSR1 profile and KSR1 correlation: higher = expression change more like KSR1 knockdown; mean distance from KSR1 profile: higher = expression change less like KSR1 knockdown
In all, the deposit lists about 14,000 reagents; this is a part drawn at random. 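Higher correlation or smaller distance means closer resemblance to KSR1 loss; control wells, including KSR1 knockdowns, recur on many plates.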 Not all columns of the deposit are shown. Not given: the time to read-out.

| target gene | mean correlation with KSR1 profile | mean distance from KSR1 profile | KSR1 correlation, replicate 1 |
| --- | --- | --- | --- |
| TMEM45A (GeneID 55076) | -0.256 | 1.58 | -0.401 |
| RIPK2 (GeneID 8767) | 0.595 | 1.01 | 0.825 |
| KEL (GeneID 3792) | -0.0738 | 1.37 | -0.0453 |
| SCAMP1 (GeneID 9522) | -0.182 | 2.68 | -0.136 |
| TMEM53 (GeneID 79639) | 0.527 | 1.88 | 0.556 |
| ACAT1 (GeneID 38) | 0.336 | 2.62 | 0.133 |
| ACE (GeneID 1636) | -0.154 | 1.98 | 0.366 |
| PARP4 (GeneID 143) | -0.789 | 3 | -0.812 |
| GNPNAT1 (GeneID 64841) | 0.0937 | 1.11 | -0.409 |
| CLDN16 (GeneID 10686) | 0.301 | 1.4 | 0.17 |
| PRKCB (GeneID 5579) | 0.197 | 2.61 | 0.483 |
| DAZ1 (GeneID 1617) | 0.671 | 1.88 | 0.674 |
| NKG7 (GeneID 4818) | -0.121 | 4 | -0.283 |
| MAU2 (GeneID 23383) | -0.868 | 2.92 | -0.867 |
| HABP4 (GeneID 22927) | -0.476 | 2.29 | -0.389 |
| PLCB2 (GeneID 5330) | 0.446 | 1.78 | 0.269 |
| DHRS11 (GeneID 79154) | -0.187 | 1.62 | -0.218 |
| SEC61G (GeneID 23480) | -0.183 | 2.63 | -0.242 |
| FHIP2A (GeneID 57700) | -0.143 | 1.12 | -0.298 |

In a second layout: results already given.
ACAT1 (GeneID 38) | mean correlation with KSR1 profile: 0.336; mean distance from KSR1 profile: 2.62; KSR1 correlation, replicate 1: 0.133
ACE (GeneID 1636) | mean correlation with KSR1 profile: -0.154; mean distance from KSR1 profile: 1.98; KSR1 correlation, replicate 1: 0.366
PARP4 (GeneID 143) | mean correlation with KSR1 profile: -0.789; mean distance from KSR1 profile: 3; KSR1 correlation, replicate 1: -0.812
GNPNAT1 (GeneID 64841) | mean correlation with KSR1 profile: 0.0937; mean distance from KSR1 profile: 1.11; KSR1 correlation, replicate 1: -0.409

More records:
| target gene | mean correlation with KSR1 profile | mean distance from KSR1 profile | KSR1 correlation, replicate 1 |
| --- | --- | --- | --- |
| EXOSC7 (GeneID 23016) | 0.63 | 0.679 | 0.727 |
| HTR1F (GeneID 3355) | 0.297 | 1.62 | 0.0954 |
| VRTN (GeneID 55237) | 0.37 | 1.78 | 0.379 |
| GTF2H3 (GeneID 2967) | -0.177 | 1.98 | -0.16 |
| ACTR3 (GeneID 10096) | 0.283 | 1.62 | 0.0526 |
| KAT7 (GeneID 11143) | -0.0431 | 1.4 | 0 |
| GNA12 (GeneID 2768) | -0.153 | 1.89 | 0.0889 |
| MAPRE3 (GeneID 22924) | -0.758 | 2.06 | -0.748 |
| NANP (GeneID 140838) | -0.0171 | 2.68 | 0.0403 |
| MRM3 (GeneID 55178) | -0.431 | 1.91 | -0.524 |
| BRD1 (GeneID 23774) | 0.405 | 0.899 | 0.557 |
| ZNF213 (GeneID 7760) | -0.391 | 2.28 | -0.423 |
| ZNHIT6 (GeneID 54680) | -0.738 | 2.57 | -0.454 |
| MC5R (GeneID 4161) | 0.346 | 3.03 | 0.476 |
| LDB3 (GeneID 11155) | -0.829 | 1.85 | -0.651 |
| GCC2 (GeneID 9648) | 0.0578 | 1.62 | -0.0669 |
| PMCHL2 (GeneID 5370) | 0.0442 | 1.8 | 0.182 |
| ABCB9 (GeneID 23457) | -0.228 | 2.84 | 0.0311 |
| ANAPC10 (GeneID 10393) | -0.642 | 1.48 | -0.366 |
| USP48 (GeneID 84196) | 0.736 | 1.17 | 0.602 |
| GLUD1 (GeneID 2746) | 0.28 | 1.53 | 0.23 |
| PRDX6 (GeneID 9588) | 0.458 | 1.02 | 0.462 |
| JAG1 (GeneID 182) | -0.29 | 1.56 | 0.0976 |
| ZKSCAN7 (GeneID 55888) | -0.358 | 6.43 | 0.0389 |
| FOXRED1 (GeneID 55572) | 0.352 | 2.51 | 0.239 |
| RHOJ (GeneID 57381) | -0.803 | 3.78 | -0.792 |
| NBPF3 (GeneID 84224) | 0.297 | 1.41 | 0.616 |
| TMBIM4 (GeneID 51643) | 0.00939 | 3.35 | 0.0504 |
| HINT2 (GeneID 84681) | 0.547 | 2.72 | 0.65 |
| PAK2 (GeneID 5062) | 0.444 | 1.96 | 0.584 |
| FBF1 (GeneID 85302) | 0.148 | 3.7 | 0.0495 |
